According to paper doi:10.1101/2022.09.08.507146:
No constants are given. Whether binding was seen depends on the method and setting. Some entries that bind do so weakly or less than the wild type. Each block holds one molecule with its values, some of them ahead of it.

What was measured:
[1] = target: Prosthecobacter dejongeii wild-type BtubAB heterodimer (Prosthecobacter dejongeii) (UniProt Q8GCC5); experiment: negative-stain electron microscopy
[2] = target: T1, Prosthecobacter dejongeii BtubA* (R284G, R286D, F287G M-loop mutant of BtubA) (Prosthecobacter dejongeii); experiment: cryo-EM structure
T1 sequence: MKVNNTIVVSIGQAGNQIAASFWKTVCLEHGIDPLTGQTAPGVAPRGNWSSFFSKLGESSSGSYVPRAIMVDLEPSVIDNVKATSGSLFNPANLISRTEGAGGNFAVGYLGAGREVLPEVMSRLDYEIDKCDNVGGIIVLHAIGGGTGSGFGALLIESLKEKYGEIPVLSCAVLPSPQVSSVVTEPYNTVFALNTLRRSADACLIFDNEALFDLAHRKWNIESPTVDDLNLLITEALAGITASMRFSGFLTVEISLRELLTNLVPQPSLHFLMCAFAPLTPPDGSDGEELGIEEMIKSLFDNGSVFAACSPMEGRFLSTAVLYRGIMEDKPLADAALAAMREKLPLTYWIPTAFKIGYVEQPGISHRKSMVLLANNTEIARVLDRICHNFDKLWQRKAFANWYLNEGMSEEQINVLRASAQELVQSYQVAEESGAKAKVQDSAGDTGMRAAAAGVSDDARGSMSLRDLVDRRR

binding [1]: binds
Molecule: Prosthecobacter dejongeii wild-type BtubAB heterodimer (from UniProt Q8GCC5 1-473) (complex)

binding [2]: binds
B1: Prosthecobacter dejongeii BtubB (protein)
chain: MREILSIHVGQCGNQIADSFWRLALREHGLTEAGTLKEGSNAAANSNMEVFFHKVRDGKYVPRAVLVDLEPGVIARIEGGDMSQLFDESSIVRKIPGAANNWARGYNVEGEKVIDQIMNVIDSAVEKTKGLQGFLMTHSIGGGSGSGLGSLILERLRQAYPKKRIFTFSVVPSPLISDSAVEPYNAILTLQRILDNADGAVLLDNEALFRIAKAKLNRSPNYMDLNNIIALIVSSVTASLRFPGKLNTDLSEFVTNLVPFPGNHFLTASFAPMRGAGQEGQVRTNFPDLARETFAQDNFTAAIDWQQGVYLAASALFRGDVKAKDVDENMATIRKSLNYASYMPASGGLKLGYAETAPEGFASSGLALVNHTGIAAVFERLIAQFDIMFDNHAYTHWYENAGVSRDMMAKARNQIATLAQSYRDAS
